No constants are given. Whether binding was seen depends on the method and setting. Binding seen in cells or lysates may run through a third protein. Some entries that bind do so weakly or less than the wild type.
How the values were obtained:
[1] = target: GATA1 (endogenous, MCF7 cells) (human (endogenous in MCF7)) (UniProt P15976); assay: co-IP; reciprocal co-immunoprecipitation of endogenous proteins from cell lysate (MCF7); antibodies overnight at 4°C, protein G or A agarose, immunoblot
[2] = target: T1, SET7 (endogenous, MCF7 cells) (human (endogenous in MCF7)) (UniProt Q8WTS6); assay: as above
T1 sequence: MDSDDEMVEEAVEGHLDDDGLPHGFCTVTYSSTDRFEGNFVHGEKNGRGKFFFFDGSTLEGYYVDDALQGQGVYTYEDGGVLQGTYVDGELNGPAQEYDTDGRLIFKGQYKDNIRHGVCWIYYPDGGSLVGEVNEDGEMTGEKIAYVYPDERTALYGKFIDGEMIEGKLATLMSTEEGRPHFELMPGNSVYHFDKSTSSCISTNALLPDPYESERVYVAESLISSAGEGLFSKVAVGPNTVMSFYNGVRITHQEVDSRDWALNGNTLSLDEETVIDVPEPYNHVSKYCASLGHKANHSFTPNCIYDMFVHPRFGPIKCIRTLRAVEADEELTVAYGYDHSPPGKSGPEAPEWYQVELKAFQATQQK

Chains of the proteins cited; added tags and fusions are not shown.
UniProt P15976: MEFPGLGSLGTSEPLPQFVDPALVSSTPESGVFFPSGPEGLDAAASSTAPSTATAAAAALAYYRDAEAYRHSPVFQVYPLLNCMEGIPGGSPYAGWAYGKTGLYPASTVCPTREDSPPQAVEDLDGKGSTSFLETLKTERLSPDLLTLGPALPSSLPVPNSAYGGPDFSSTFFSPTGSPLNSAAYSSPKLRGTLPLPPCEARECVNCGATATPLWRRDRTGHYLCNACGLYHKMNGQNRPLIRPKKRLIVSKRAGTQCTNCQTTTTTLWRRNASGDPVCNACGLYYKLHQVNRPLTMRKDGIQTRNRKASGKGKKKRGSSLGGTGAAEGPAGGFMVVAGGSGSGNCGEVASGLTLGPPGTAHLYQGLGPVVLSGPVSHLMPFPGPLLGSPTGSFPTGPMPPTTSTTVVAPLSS
UniProt Q00403: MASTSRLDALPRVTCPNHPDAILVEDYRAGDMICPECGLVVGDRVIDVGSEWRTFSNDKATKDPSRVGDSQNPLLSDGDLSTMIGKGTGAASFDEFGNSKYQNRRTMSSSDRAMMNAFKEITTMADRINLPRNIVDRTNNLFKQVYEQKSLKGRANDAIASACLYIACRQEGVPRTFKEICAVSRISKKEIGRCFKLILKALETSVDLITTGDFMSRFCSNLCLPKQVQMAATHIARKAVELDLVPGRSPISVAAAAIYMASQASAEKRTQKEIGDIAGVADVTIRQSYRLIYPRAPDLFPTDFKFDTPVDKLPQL

binding [1]	binding [2]	Substance
binds	binds	TFIIB (endogenous) (from UniProt Q00403 1-316)
–	binds	GATA1 (endogenous, MCF7 cells) (from UniProt P15976 1-413)
